# PubChem BioAssay AID1224830 – NIAID | 2016
# Test: 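Host factors that control LPS-induced TNF expression in human macrophages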 (primary screen)
# Cells: human THP-1 monocytic leukaemia cells, TNF dual-luciferase reporter clone, PMA-differentiated to macrophage-like cells
# Reagent: siRNA pool against human genes, 50 nM
# Duration: LPS for 4 h, given about 3 days after siRNA transfection
# Challenge: bacterial LPS (TLR4 ligand), 10 ng/ml
# Read-out: 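Ratio of firefly to renilla light, scaled to the plate median and expressed as a robust z-score per replicate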
# Scale: TNF reporter robust z-score: higher = stronger TNF reporter response to LPS
# Active means: 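a well is active when its z-score exceeds 2.8 or falls below -1.5; control wells carry no call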
# The deposit covers about 18,000 reagents; below is a random part of them. Of all reagents, about 2,900 (16%) were called active. 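Calls are made per well; low scores hint the gene aids the LPS response, high scores that it dampens it.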 Repeated entries: four replicate wells of each siRNA pool.
target,TNF reporter robust z-score,activity call
KRT86 (keratin 86),-0.48,inactive
KRT86 (keratin 86),-0.81,inactive
KRT86 (keratin 86),-0.65,inactive
KRT86 (keratin 86),-0.32,inactive
AVPI1 (arginine vasopressin induced 1),1.92,inactive
AVPI1 (arginine vasopressin induced 1),1.04,inactive
AVPI1 (arginine vasopressin induced 1),0.24,inactive
AVPI1 (arginine vasopressin induced 1),0.71,inactive
ROBO4 (roundabout guidance receptor 4),-0.21,inactive
ROBO4 (roundabout guidance receptor 4),-1.07,inactive
ROBO4 (roundabout guidance receptor 4),-0.5,inactive
PILRA (paired immunoglobin like type 2 receptor alpha),-0.28,inactive
PILRA (paired immunoglobin like type 2 receptor alpha),0.18,inactive
PILRA (paired immunoglobin like type 2 receptor alpha),0.09,inactive
PILRA (paired immunoglobin like type 2 receptor alpha),0.36,inactive
RNF141 (ring finger protein 141),1.72,inactive
RNF141 (ring finger protein 141),-0.69,inactive
RNF141 (ring finger protein 141),-0.49,inactive
RNF141 (ring finger protein 141),0.25,inactive
PEX26 (peroxisomal biogenesis factor 26),-1.2,inactive
PEX26 (peroxisomal biogenesis factor 26),-0.86,inactive
PEX26 (peroxisomal biogenesis factor 26),-1.61,active
PEX26 (peroxisomal biogenesis factor 26),-1.3,inactive
GOLGA6A (golgin A6 family member A),0.3,inactive
GOLGA6A (golgin A6 family member A),0.67,inactive
GOLGA6A (golgin A6 family member A),-0.12,inactive
GOLGA6A (golgin A6 family member A),0.56,inactive
"LAMTOR5 (late endosomal/lysosomal adaptor, MAPK and MTOR activator 5)",-1.03,inactive
"LAMTOR5 (late endosomal/lysosomal adaptor, MAPK and MTOR activator 5)",3.39,active
"LAMTOR5 (late endosomal/lysosomal adaptor, MAPK and MTOR activator 5)",-1.46,inactive
"LAMTOR5 (late endosomal/lysosomal adaptor, MAPK and MTOR activator 5)",-1,inactive
SEPTIN6 (septin 6),-0.19,inactive
SEPTIN6 (septin 6),-0.37,inactive
SEPTIN6 (septin 6),-1.55,active
SEPTIN6 (septin 6),-0.96,inactive

3 successive entries from above:
target,TNF reporter robust z-score,activity call
ROBO4 (roundabout guidance receptor 4),-0.21,inactive
ROBO4 (roundabout guidance receptor 4),-1.07,inactive
ROBO4 (roundabout guidance receptor 4),-0.5,inactive

The list goes on:
target,TNF reporter robust z-score,activity call
APRG1 (APRG1 tumor suppressor candidate),-0.79,inactive
APRG1 (APRG1 tumor suppressor candidate),-1.11,inactive
APRG1 (APRG1 tumor suppressor candidate),-0.08,inactive
APRG1 (APRG1 tumor suppressor candidate),-0.2,inactive
BNC2 (basonuclin zinc finger protein 2),0.15,inactive
BNC2 (basonuclin zinc finger protein 2),0.83,inactive
BNC2 (basonuclin zinc finger protein 2),1.13,inactive
BNC2 (basonuclin zinc finger protein 2),0.61,inactive
AGBL2 (AGBL carboxypeptidase 2),0.16,inactive
AGBL2 (AGBL carboxypeptidase 2),-1.25,inactive
AGBL2 (AGBL carboxypeptidase 2),-0.52,inactive
AGBL2 (AGBL carboxypeptidase 2),-1.35,inactive
CGAS (cyclic GMP-AMP synthase),-0.07,inactive
CGAS (cyclic GMP-AMP synthase),0.24,inactive
CGAS (cyclic GMP-AMP synthase),-0.25,inactive
CGAS (cyclic GMP-AMP synthase),-0.6,inactive
"BCAR1 (BCAR1 scaffold protein, Cas family member)",1.55,inactive
"BCAR1 (BCAR1 scaffold protein, Cas family member)",0.37,inactive
"BCAR1 (BCAR1 scaffold protein, Cas family member)",-0.76,inactive
"BCAR1 (BCAR1 scaffold protein, Cas family member)",1.75,inactive
DCUN1D4 (defective in cullin neddylation 1 domain containing 4),-0.1,inactive
DCUN1D4 (defective in cullin neddylation 1 domain containing 4),0.54,inactive
DCUN1D4 (defective in cullin neddylation 1 domain containing 4),-0.95,inactive
DCUN1D4 (defective in cullin neddylation 1 domain containing 4),-0.29,inactive
F2RL2 (coagulation factor II thrombin receptor like 2),-0.92,inactive
F2RL2 (coagulation factor II thrombin receptor like 2),0.3,inactive
F2RL2 (coagulation factor II thrombin receptor like 2),-0.81,inactive
F2RL2 (coagulation factor II thrombin receptor like 2),-0.02,inactive
MLH3 (mutL homolog 3),1.42,inactive
MLH3 (mutL homolog 3),0.65,inactive
MLH3 (mutL homolog 3),-0.27,inactive
MLH3 (mutL homolog 3),0.47,inactive
"CLCA3P (chloride channel accessory 3, pseudogene)",-0.55,inactive
"CLCA3P (chloride channel accessory 3, pseudogene)",1.13,inactive
"CLCA3P (chloride channel accessory 3, pseudogene)",0.66,inactive
"CLCA3P (chloride channel accessory 3, pseudogene)",1.25,inactive
RPN1 (ribophorin I),0.03,inactive
RPN1 (ribophorin I),0.97,inactive
RPN1 (ribophorin I),-0.33,inactive
RPN1 (ribophorin I),0.27,inactive
